Laboratory results: PubChem BioAssay AID1259308 (NCATS, 2017)
The deposit covers about 59,000 reagents; shown is a random part of them. About 1,510 of all reagents (2.6%) count as active. 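Calls use total luciferase alone and ignore viability, so some active siRNAs may act by altering cell number.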 A number with no mark means an inactive call. Reagents against one gene are numbered here.

Purpose: 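Candidate targets for better recombinant protein yield in mammalian cells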 (primary screen)
Cells: human HEK293 embryonic kidney cells stably expressing firefly luciferase (HEK-CMV-Luc2-Hygro)
Reagents: single siRNA against human genes, 0.8 pmol siRNA per well
Time to read-out: 72 h
Measured: 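Reporter luminescence and viable-cell signal on separate replicate plates, given as percent of non-targeting control and median/MAD z-scores, plus per-cell luciferase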
Direction: total luciferase, z-score and total luciferase, % of control: higher = more reporter protein produced; luciferase per cell, z-score: higher = more reporter output per viable cell; viable cells, % of control: higher = more viable cells
Active means: 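An siRNA counts as active if its total luciferase robust z-score exceeds 3; genes with two or more such siRNAs out of three were retested with fresh siRNAs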
Calls: active = raised luciferase; inactive = no rise

no.	gene symbol	reagent	total luciferase, z-score	total luciferase, % of control	luciferase per cell, z-score	viable cells, % of control
1	GSK3B (glycogen synthase kinase 3 beta)	1	1.14	105	1.46	79.6
2	GSK3B (glycogen synthase kinase 3 beta)	2	0.251	86.9	0.0414	96
3	GSK3B (glycogen synthase kinase 3 beta)	3	-1.24	57.2	-1.18	87.1
4	VWA8 (von Willebrand factor A domain containing 8)	1	1.23	106	0.372	108
5	VWA8 (von Willebrand factor A domain containing 8)	2	0.165	85.2	-0.391	105
6	VWA8 (von Willebrand factor A domain containing 8)	3	0.553	92.9	0.527	90.3
7	HNRNPA0 (heterogeneous nuclear ribonucleoprotein A0)	1	-0.251	76.9	-0.621	101
8	HNRNPA0 (heterogeneous nuclear ribonucleoprotein A0)	2	-1.1	60	-1.2	92
9	HNRNPA0 (heterogeneous nuclear ribonucleoprotein A0)	3	0.374	89.3	-0.329	109
10	DNTTIP1 (deoxynucleotidyltransferase terminal interacting protein 1)	1	1.99	121	1.07	103
11	DNTTIP1 (deoxynucleotidyltransferase terminal interacting protein 1)	2	2.06	123	1.14	102
12	DNTTIP1 (deoxynucleotidyltransferase terminal interacting protein 1)	3	0.202	85.9	-0.432	108
13	LINC01559 (long independently transcribed non-coding RNA 1559)	1	-0.0319	81.3	-0.871	114
14	LINC01559 (long independently transcribed non-coding RNA 1559)	2	0.385	89.5	-0.015	100
15	LINC01559 (long independently transcribed non-coding RNA 1559)	3	0.577	93.4	-0.0193	105
16	TP53TG3 (TP53 target 3)	1	-0.256	76.8	-0.213	90.8
17	TP53TG3 (TP53 target 3)	2	1.38	109	0.852	97.5
18	TP53TG3 (TP53 target 3)	3	0.857	98.9	0.407	99.3
19	PER1 (period circadian regulator 1)	1	0.537	92.6	1.73	65.5
20	PER1 (period circadian regulator 1)	2	1.53	112	1.06	95
21	PER1 (period circadian regulator 1)	3	-0.493	72.1	-0.926	103
22	DBP (D-box binding PAR bZIP transcription factor)	1	1.24	107	1.23	86.1
23	DBP (D-box binding PAR bZIP transcription factor)	2	0.0644	83.2	0.176	88.7
24	DBP (D-box binding PAR bZIP transcription factor)	3	-1.01	61.7	-0.873	86.8
25	SLC2A3	1	-0.731	67.3	0.133	72.7
26	SLC2A3	2	2.35	129	1.23	104
27	SLC2A3	3	-0.572	70.5	-0.932	101
28	CIAPIN1 (cytokine induced apoptosis inhibitor 1)	1	2.99	141	2.11	90.6
29	CIAPIN1 (cytokine induced apoptosis inhibitor 1)	2	0.677	95.4	0.98	82.3
30	CIAPIN1 (cytokine induced apoptosis inhibitor 1)	3	1.48	111	1.08	93.5
31	RPSAP48 (ribosomal protein SA pseudogene 48)	1	-0.951	63	-0.781	86.4
32	RPSAP48 (ribosomal protein SA pseudogene 48)	2	-0.0414	81.1	1.83	56
33	RPSAP48 (ribosomal protein SA pseudogene 48)	3	0.31	88.1	0.667	82.5
34	ZNF786 (zinc finger protein 786)	1	-1.19	58.1	2.1	37.4
35	ZNF786 (zinc finger protein 786)	2	0.775	97.3	0.808	87.9
36	ZNF786 (zinc finger protein 786)	3	-0.584	70.3	-0.889	99.2
37	NBAT1 (neuroblastoma associated transcript 1)	1	2.48	131	3.11	64.6
38	NBAT1 (neuroblastoma associated transcript 1)	2	1.08	103	1.99	68.3
39	NBAT1 (neuroblastoma associated transcript 1)	3	0.303	87.9	0.293	91
40	DBNDD1 (dysbindin domain containing 1)	1	0.186	85.6	0.25	89.6
41	DBNDD1 (dysbindin domain containing 1)	2	3.48 (active)	151	2.53	86.8
42	DBNDD1 (dysbindin domain containing 1)	3	-0.279	76.3	-0.475	96.7
43	ASB12 (ankyrin repeat and SOCS box containing 12)	1	1.02	102	1.65	73.9
44	ASB12 (ankyrin repeat and SOCS box containing 12)	2	1.2	106	1.83	73
45	ASB12 (ankyrin repeat and SOCS box containing 12)	3	1.37	109	0.592	104
46	CAPN5 (calpain 5)	1	0.689	95.6	0.0676	105
47	CAPN5 (calpain 5)	2	-1.05	60.9	-0.555	78.8
48	CAPN5 (calpain 5)	3	2.04	122	1.63	89.2
49	PRAF2 (PRA1 domain family member 2)	1	0.635	94.5	3.2	45.5
50	PRAF2 (PRA1 domain family member 2)	2	1.42	110	1.52	82.5
51	PRAF2 (PRA1 domain family member 2)	3	0.593	93.7	0.338	95.8
52	COX8A (cytochrome c oxidase subunit 8A)	1	-1.99	42.3	-3.25	111
53	COX8A (cytochrome c oxidase subunit 8A)	2	1.29	108	0.847	96.2
54	COX8A (cytochrome c oxidase subunit 8A)	3	-0.167	78.6	-0.598	103
55	CCDC85B (coiled-coil domain containing 85B)	1	-0.045	81	-0.774	111
56	CCDC85B (coiled-coil domain containing 85B)	2	0.179	85.5	0.018	95
57	CCDC85B (coiled-coil domain containing 85B)	3	3.66 (active)	155	1.56	115

Look-ups from the entries so far:
For “viable cells, % of control”, TP53TG3 (TP53 target 3) #1 reads 90.8
NBAT1 (neuroblastoma associated transcript 1) #3, total luciferase, z-score = 0.303
Result for DNTTIP1 (deoxynucleotidyltransferase terminal interacting protein 1) #2 in “total luciferase, z-score”: 2.06
NBAT1 (neuroblastoma associated transcript 1) #1, total luciferase, z-score: 2.48
Under “total luciferase, % of control”, GSK3B (glycogen synthase kinase 3 beta) #2 shows 86.9
Under “luciferase per cell, z-score”, COX8A (cytochrome c oxidase subunit 8A) #3 reads -0.598
